The source of these data is PMC10163288.

The chains are these.
B1: il10ra_site1_sap_26_mot_HHH_b2_01583_af2_000000075_0001_44_57_H_._f78fdf3a6b1cc8a037b7c7477770e1ab_0001_0001_0000400021_0000001_1_0001_af2pred_0001 (protein)
chain: SDEEEAERILHKIEELAEEKNDEKIRIAVRFYKELDKAAKELNDEESVKDILYAARALLELVEDS
B2: il10ra_site1_normal_mot_HHH_b1_08697_af2_000000298_0001_1_18_H_._HHH_b2_07088_0001_0000100003_0000002_0_af2pred_dldesign_0_af2pred (protein)
chain: SSSSSKLKKALEYHIEVLKLAKEKGNKDIAKSSYRAAKYLAELLKDPEALKEIEELEKELSSSSS
B3: il10ra_site1_normal_mot_HHH_eva_0077_af2_000000181_0001_44_59_H_._102afcf33129ce529cfca7392e69ce2b_0001_0001_0000200015_0000001_0 (protein)
chain: TEEILEAVEELLRELNSPEAKALLYLIEHQRELGQPPETILRALKAAARILGDPEVLRLIEEAEK
B4: il10ra_site1_sap_15_mot_HHH_b1_02997_000000220_0001_39_52_H_._HHH_b1_04753_0001_0000300022_0000001_1_0001 (protein)
chain: SSSSNREVYELLREAAELHHEGNPEEAEKVLEEAQELAERAGNWLLLAQVRFLQEMIERANSSSS
B5: il10ra_site1_normal_mot_HHH_b1_05357_000000034_0001_23_39_H_._HHH_b2_04745_0001_0000100004_0000001_0_1_af2pred_0001 (protein)
chain: SSSSSELSKRVSELLLRAYALESSGNPEEAQEVLEEARRLVEENNNHRLEHFIRLFERLLSSSSS
B6: il10ra_site1_normal_mot_HHH_b1_02809_af2_000000277_0001_40_57_H_._HHH_b2_02832_0001_0000600039_0000002_0 (protein)
chain: SSSSSDEEVAELYLRAARLIENNDPRAEEVVEELEELAEEKNDPRARLAVQFLKALLESSSSSSS
B7: il10ra_site1_sap_14_mot_4271555111f650dfcc09ceace45bed71_0001_1_000000133_0001_37_51_H_._HHH_b2_01879_af2_0001_0000200003_0000001_0_0001 (protein)
chain: SSSSSEESEIALRFHEAMLRQAIELNNDEAFRSALRALKVLAELYNDPEVRRVIEELEEEFSSSS
B8: il10ra_site1_normal_mot_HHH_b2_03220_af2_000000223_0001_23_40_H_._HHH_b1_06647_af2_0001_0000300016_0000001_0 (protein)
chain: SSSSERERVWELIRRALELLANGNPEEARKVLEEAEELAEELNSENLERQVRLLLEQVEALSSSS
B9: il10ra_site1_sap_15_mot_ems_3hM_3349_af2_000000045_0001_25_42_H_._7f39e2d7389de0c2f60e905c27398b6a_0001_1_0001_0000300016_0000001_0_0001 (protein)
chain: SSSSSSDHRVLRLLMRALRAIFRGDPEEVERLLKEAKEIAEENNDEELEEAIRMVESMLRSSSSS
B10: il10ra_site1_normal_mot_HHH_b1_02997_000000220_0001_39_52_H_._HHH_b2_02536_af2_0001_0000100003_0000002_1_af2pred_dldesign_0_af2pred (protein)
chain: SSSSSSSETEEVLRLIREAAEEEDPEKAKEKLEKALELAKKLGDEILVEVIEYRLSQLSSSSSSS
B11: il10ra_site1_normal_mot_HHH_b2_02337_000000026_0001_38_52_H_._HHH_b2_02232_0001_0000200025_0000002_0 (protein)
chain: SSSSDVEEEVERLIEEAKELLEEGDPRRAAEVLARAVQFAFRSGDQELLRLIWELVQKIANSSSS
B12: il10ra_site1_sap_16_mot_HHH_b1_06789_af2_000000041_0001_1_20_H_._HHH_b2_05269_af2_0001_0000200010_0000002_0_0001 (protein)
chain: SSSSDVEEELRELLKELEELVEEGDEEKFLRVAMEALHLAFQARDEEVLQLLWELAKELASSSSS
B13: il10ra_site1_normal_mot_HHH_b1_00992_000000182_0001_23_40_H_._HHH_b1_03045_0001_0000100005_0000001_0_af2pred_0001 (protein)
chain: SSSSSEEFLRLSLRFAKLLLEDGDPEAARLILRAAVDLAKKEGNEELLKELEELLEEIRGSSSSS
B14: il10ra_site1_sap_23_mot_HHH_b1_04100_af2_000000180_0001_1_19_H_._HHH_b2_02944_0001_0000100014_0000001_0_0001 (protein)
chain: SSSSTDRELAEAALRLIEQLVKNGDPEAAEMHLLALELLVRLTGDPELERILEEAEELVEKSSSS
B15: il10ra_site1_normal_mot_HHH_b2_05591_000000091_0001_1_20_H_._HHH_b1_03846_0001_0000100004_0000002_0_af2pred_0001 (protein)
chain: SSSSSTEEARRALELVREALKIDDPEEVRELLEEAQELAEEGNNEHTLELIEKILKQLDSSSSSS
B16: il10ra_site1_sap_21_mot_HHH_b1_07286_af2_000000054_0001_1_19_H_._HHH_b1_05354_0001_0000100023_0000002_0_0001 (protein)
chain: SSSSDSQEVYELLRRAIELAKEGNPEEARELLKEAEKIAEELNSRVMKVLIEFVEREVEENSSSS
B17: il10ra_site1_sap_21_mot_HHH_b2_00984_000000042_0001_1_20_H_._HHH_b1_03836_0001_0000800039_0000002_0_0001 (protein)
chain: SSSSSEEERYLELTIRFLEWLLRQGDEESIKRMLRALEDIARRLGDEEAEEVVEEVRRELSSSSS
B18: il10ra_site1_normal_mot_HHH_b2_00622_af2_000000153_0001_40_57_H_._HHH_b1_07280_0001_0000600025_0000002_0_af2pred_0001 (protein)
chain: SSSSDVERSVEILREAAEIALKLGDPERARLALEDALVAAREAGNPELAEEIEKLIEEVERSSSS

This is one part of the list.

The target in the assay is il10ra, Q13651. The assay is described as follows: yeast display titration.
For B1, the “apparent Kd” value is “inactive: no binding seen”.
As for B2, the “apparent Kd” value was “inactive: no binding seen”.
Next, B3: “inactive: no binding seen”.
Consider B4, for which the “apparent Kd” value is “inactive: no binding seen”.
Regarding B5, the “apparent Kd” value is “inactive: no binding seen”.
In the case of B6, the “apparent Kd” value was “inactive: no binding seen”.
Regarding B7, the “apparent Kd” value was “inactive: no binding seen”.
Take B8: the “apparent Kd” value was “inactive: no binding seen”.
B9: the “apparent Kd” value was “inactive: no binding seen”.
The value for B10 was “inactive: no binding seen”; that for B11 was “inactive: no binding seen”.
For the molecule B12, the “apparent Kd” value is “inactive: no binding seen”.
Next, B13: “inactive: no binding seen”.
The value for B14 was “inactive: no binding seen”.
As for B15, the “apparent Kd” value was “inactive: no binding seen”.
Next, B16: “inactive: no binding seen”.
On to B17, for which the “apparent Kd” value is “inactive: no binding seen”.
For the molecule B18, the “apparent Kd” value is “inactive: no binding seen”.
